Data on one substance can be found in article PMC10890932.

In this experiment the target is T1, TKT full-length (plasmid co-transfected with PARP1 truncation mutants) (human) (UniProt P29401).
T1 sequence: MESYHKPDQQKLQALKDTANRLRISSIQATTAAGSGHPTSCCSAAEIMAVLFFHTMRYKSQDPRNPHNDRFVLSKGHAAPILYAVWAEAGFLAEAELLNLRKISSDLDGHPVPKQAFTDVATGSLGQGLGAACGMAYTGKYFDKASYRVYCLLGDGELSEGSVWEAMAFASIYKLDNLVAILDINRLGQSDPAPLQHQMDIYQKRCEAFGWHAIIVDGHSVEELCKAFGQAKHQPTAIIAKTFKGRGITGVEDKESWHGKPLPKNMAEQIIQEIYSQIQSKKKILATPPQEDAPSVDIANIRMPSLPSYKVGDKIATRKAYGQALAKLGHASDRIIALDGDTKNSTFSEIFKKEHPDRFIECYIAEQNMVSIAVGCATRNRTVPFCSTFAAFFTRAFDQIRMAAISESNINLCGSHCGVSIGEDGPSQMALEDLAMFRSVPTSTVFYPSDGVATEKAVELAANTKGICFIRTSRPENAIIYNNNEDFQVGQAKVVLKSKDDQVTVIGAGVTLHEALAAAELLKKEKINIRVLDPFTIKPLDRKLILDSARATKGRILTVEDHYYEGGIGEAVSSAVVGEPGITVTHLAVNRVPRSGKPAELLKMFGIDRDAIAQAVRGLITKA
As to the kind of experiment: co-IP; Hep3B cells transfected with TKT or PARP1 truncation mutants together with PARP1 or TKT full-length plasmid.

These are yes or no findings as the source states them, for the method shown. Binding seen in cells or lysates may run through a third protein. Binding can be weak; no strength is given.

Consider “ZnF domain of PARP1 (truncation mutant) (domain or fragment)”, for which the binding result is reported as “binds”.
